# Test results reported in the supplement of paper PMC11348887.
# Counter-ions that a name gives are not always drawn. This is one part of the list. Most values lie at the level of the controls, where differences are scatter.
# Tested on: hPSC-derived cortical neurons (WA09)
# Assay: total neurite length per nucleus (MAP2) z-score; higher = more neurite growth
# Conditions: 5 µM; treatment: days 7-14 after plating, readout day 21
row,SMILES,total neurite length per nucleus (z-score)
1,CCOC(=O)C1=C(C)NC(C)=C(C(=O)OC)C1c1cccc([N+](=O)[O-])c1 (centres undefined) [Nitrendipine],-1.2
2,C[C@H](Cn1cnc2c(N)ncnc21)OCP(=O)(O)O [Tenofovir],-0.0106
3,C=C1CC[C@H](O)C/C1=C/C=C1\CCC[C@]2(C)[C@@H]([C@H](C)CCCC(C)C)CC[C@@H]12 [Vitamin D3],-0.334
4,CCCCC(=O)O[C@H]1CC[C@H]2[C@@H]3CCc4cc(O)ccc4[C@H]3CC[C@]12C [Estradiol valerate],0.346
5,O=C(O)c1ccc(-c2c[nH]c3ncc(-c4ccccc4)cc23)cc1C1CCCC1,0.943
6,COc1cc([C@@H]2c3cc4c(cc3[C@@H](O[C@@H]3O[C@@H]5CO[C@@H](C)O[C@H]5[C@H](O)[C@H]3O)[C@H]3COC(=O)[C@H]23)OCO4)cc(OC)c1O [Etoposide],0.651
7,Cc1cc(N2CCOCC2)cc2[nH]c(-c3c(NC[C@@H](O)c4cccc(Cl)c4)cc[nH]c3=O)nc12,-0.693
8,CC(=O)OCC(=O)[C@@]1(O)CC[C@H]2[C@@H]3CCC4=CC(=O)C=C[C@]4(C)[C@H]3[C@@H](O)C[C@@]21C [Prednisolone Acetate],-0.282
9,Cc1cc(Nc2nc(N[C@@H](C)c3ccc(F)cc3)c(C#N)cc2F)n[nH]1,0.24
10,NC(=O)NO [Hydroxyurea],0.35
11,Cc1onc(-c2ccccc2)c1-c1ccc(S(N)(=O)=O)cc1 [Valdecoxib],-0.282
12,O=C(O)/C=C/c1ccc(O)c(O)c1 [Caffeic Acid],0.145
13,CC[C@]1(O)C[C@@H]2CN(CCc3c([nH]c4ccccc34)[C@@](C(=O)OC)(c3cc4c(cc3OC)N(C)[C@H]3[C@@](O)(C(=O)OC)[C@H](OC(C)=O)[C@]5(CC)C=CCN6CC[C@]43[C@@H]65)C2)C1 [Vinblastine sulfate],-6.23
14,CC1(C)CC(=O)c2c(C(F)(F)F)nn(-c3ccc(C(N)=O)c(N[C@H]4CC[C@H](O)CC4)c3)c2C1,-5.63
15,CCN(Cc1ccncc1)C(=O)C(CO)c1ccccc1 (centres undefined) [Tropicamide],1.27
16,COc1cc2nc(N3CCCN(C)CC3)nc(NC3CCN(Cc4ccccc4)CC3)c2cc1OC,-4.54
17,c1ccc(CNc2ncnc3[nH]cnc23)cc1 [6-Benzylaminopurine],-1.74
18,CN(C)[C@@H]1C(O)=C(C(N)=O)C(=O)[C@@]2(O)C(O)=C3C(=O)c4c(O)ccc(Cl)c4[C@@H](O)[C@H]3C[C@@H]12 [Demeclocycline HCl],-0.408
19,CCCCCCCCCCCCCCCC(=O)OC[C@H](O)[C@H]1OC(=O)C(O)=C1O [L-Ascorbyl 6-palmitate],-0.326
20,Clc1ccc(C(c2c[nH]c3ccccc23)c2c[nH]c3ccccc23)cc1,-3.86

# An excerpt of the results above:
row,SMILES,total neurite length per nucleus (z-score)
8,CC(=O)OCC(=O)[C@@]1(O)CC[C@H]2[C@@H]3CCC4=CC(=O)C=C[C@]4(C)[C@H]3[C@@H](O)C[C@@]21C [Prednisolone Acetate],-0.282
9,Cc1cc(Nc2nc(N[C@@H](C)c3ccc(F)cc3)c(C#N)cc2F)n[nH]1,0.24

# Next compounds follow:

row,SMILES,total neurite length per nucleus (z-score)
1,CC(C)(C)c1cc(C(=O)C(C#N)=NNc2cccc(Cl)c2)no1,0.399
2,C[C@H]1CNCCCN1S(=O)(=O)c1cccc2cncc(F)c12 [Ripasudil (K-115) hydrochloride dihydrate],-1.12
3,Clc1ccc(C(Cn2ccnc2)OCc2csc3c(Cl)cccc23)c(Cl)c1 (centres undefined) [Sertaconazole nitrate],-0.959
4,CN1CC[C@H](c2c(O)cc(O)c3c(=O)cc(-c4ccccc4Cl)oc23)[C@H](O)C1 [Flavopiridol HCl],-5.76
5,Cc1cc(F)c(Nc2ncnc3cc(OCc4ccccc4)ccc23)cc1O,-0.0794
6,CCn1c(=O)c2c(nc(/C=C/c3ccc(OC)c(OC)c3)n2C)n(CC)c1=O [Istradefylline],0.586
7,O=S(=O)(O)c1cc(O)ccc1O [Ethamsylate],-1.49
8,CCOc1ccc(NC(C)=O)cc1 [Phenacetin],0.0298
9,CC[C@H](C)n1cc(C)c2c(C(=O)NCc3c(C)cc(C)[nH]c3=O)cc(-c3ccc(N4CCNCC4)nc3)cc21,0.31
10,CO[C@H]1C(=O)[C@]2(C)[C@@H](OC)C[C@H]3OC[C@@]3(OC(C)=O)[C@H]2[C@H](OC(=O)c2ccccc2)[C@]2(O)C[C@H](OC(=O)[C@H](O)[C@@H](NC(=O)OC(C)(C)C)c3ccccc3)C(C)=C1C2(C)C [Cabazitaxel],1.1
11,COC(=O)CCc1ccc(OCC(O)CNC(C)C)cc1 (centres undefined) [Esmolol HCl],-4.66
12,COCCOC(=O)C1=C(C)NC(C)=C(C(=O)OC(C)C)C1c1cccc([N+](=O)[O-])c1 (centres undefined) [Nimodipine],-1.79
13,C[C@@H]1COCCN1c1cc(C2([S@](C)(=N)=O)CC2)nc(-c2cc[nH]c3nccc2-3)n1,-1.44
14,CCOc1ccc2nc(S(N)(=O)=O)sc2c1 [Ethoxzolamide],0.475
15,COC(=O)C1=C(C)NC(C)=C(C(=O)OCCN2CCN(C(c3ccccc3)c3ccccc3)CC2)C1c1cccc([N+](=O)[O-])c1 (centres undefined) [Manidipine],-1.67
16,Oc1c(Br)cc(Br)c2cccnc12 [Broxyquinoline],0.866
17,C[C@H](CCC(=O)O)[C@H]1CC[C@H]2[C@@H]3[C@H](O)C[C@@H]4C[C@H](O)CC[C@]4(C)[C@H]3CC[C@]12C [Chenodeoxycholic Acid],0.182
18,Oc1ccc(Cl)c2cccnc12 [Cloxiquine],-2.88
19,CCOC(=O)c1c2c3c(cccc3[nH]c1=O)C(=O)c1ccccc1-2,-0.245
